# Reference: PMC7816512
# T1: FLAG-HA-Rbm10 (S. pombe) (UniProt P87143)
# T1 sequence: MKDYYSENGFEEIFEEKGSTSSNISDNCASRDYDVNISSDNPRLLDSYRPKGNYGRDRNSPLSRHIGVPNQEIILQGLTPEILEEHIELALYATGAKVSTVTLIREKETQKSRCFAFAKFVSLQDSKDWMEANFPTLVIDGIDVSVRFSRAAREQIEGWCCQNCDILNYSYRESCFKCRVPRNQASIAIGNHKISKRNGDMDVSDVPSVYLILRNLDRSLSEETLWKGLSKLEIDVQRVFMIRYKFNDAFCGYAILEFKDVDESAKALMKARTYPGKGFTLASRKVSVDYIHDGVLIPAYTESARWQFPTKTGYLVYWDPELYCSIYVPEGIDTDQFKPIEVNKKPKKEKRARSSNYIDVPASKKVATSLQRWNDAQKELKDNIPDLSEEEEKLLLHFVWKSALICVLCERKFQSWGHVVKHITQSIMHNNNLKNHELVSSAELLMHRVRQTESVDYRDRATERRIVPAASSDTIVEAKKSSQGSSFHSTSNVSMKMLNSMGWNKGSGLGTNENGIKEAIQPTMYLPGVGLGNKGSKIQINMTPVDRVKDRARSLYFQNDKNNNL
# Target: T1, FLAG-HA-Rbm10 (S. pombe)
# Experiment: affinity purification with mass spectrometry; two-step purification (anti-FLAG beads, 3xFLAG peptide elution, then uMACS HA magnetic beads) of overexpressed FLAG-HA-Rbm10 from S. pombe lysate with Benzonase; three independent purifications; control purification from an untagged strain
row,binding,Binder
1,binds,"Prp11 (protein, UniProt Q9P7C7 1-1014) MSRRTRSRSPPRRSYNRERRDYRKYDDSEDQKGARYNRYVDDVSSRRDRHDSFRSHESNKIRRDNSWKHDKYSYEKRYQERDREYARSKNIPDQYIGRSPRPTSHRHAEEKEVDNKTKSDETNPVLQGSATEIKPQPRRSRFDRTERVGASLSVSEIQSENPRVDVIPKDKAVENNHQRNAEKPVASDKITDAKLLARLERVRAWKESKAKQEASKKEEHKLNTKPQVTAKDQNAMPSTGISGFEINRQKDTSDMKRNNRVHMDDEDGPRRMNLEDYQELWDQEDRGMLGNEQAASMEEDEVDPLDAYMASLVGTTDTIRPGLLNTEVIDPNANDDERMVISETLEEEENLLALAAKRSKKKDVITVDHSKINYEDFKKDFYVEPEELKNLSPAEVDELRASLDGIKIRGIDCPKPVTSWSQCGLSAQTISVINSLGYEKPTSIQAQAIPAITSGRDVIGVAKTGSGKTIAFLLPMFRHIKDQRPLKTGEGPIAIIMTPTRELAVQIFRECKPFLKLLNIRACCAYGGAPIKDQIADLKRGAEIVVCTPGRMIDVLSANAGRVTNLHRCTYLVLDEADRMFDLGFEPQVMRIINNIRPDRQTVLFSATFPRAMEALARKVLKKPVEITVGGRSVVASEVEQIVEVRPEESKFSRLLELLGELYNNQLDVRTLVFVDRQESADALLSDLMKRGYTSNSIHGGKDQHDRDSTISDYKAGVFDVLIATSVVARGLDVKSLQLVVNYDCPNHMEDYVHRVGRTGRAGHTGVAVTFITPEQEKYAVDIAKALKMSKQPVPKELQTLASQFLEKVKAGKEKAAGGGFGGKGLSRLDETRNAERKMQRKAYGEDEEDVETEAEAKSPLEKITPEKSTGDPTLDRVRAAVGGIAARAFANQTAQSNKLTQPISIIKTDGDEYKAKMEINDYPQQARWAVTNNTNIVHVTELTGTSITTKGNFYLPGKNPEPGEEKLYLWIEGPSELVVNRAITELRRLLLEGINHSLEGGNKPSASGRYTVV"
2,binds,"Prp19 (protein, UniProt O14011 1-488) MFCSISGETPKEPVISRVSGNVYEKRLIEQVIRETSKDPVTQQECTLEDLVPVKVPDFVRPRPPSATSLPALLSLFQEEWDSVALEQFELRRNLTETKQELSTALYSLDAALRVISRLTKERDEAREALAKFSDNIGTVSSKTIEVQEVEMGESDDQLKTSLRSTVEKTFQELSSKRKRTKLQPKWATDDAVSQLLQATPSTILENLETESTTSFFPSPENSSFVLCLHKDELLCLDIQSNSTLKIFEGSALACCWLTSSKIAVATADAISIFEFPVSSSGLQSVGEPTSSIPIDEKVNFLQAHPSGEYLLAASNEKCYIFSLKSQVYNITVAQHITSLAVHPDGNLFVAGLENGELRFFETSSGNELTKFGPHSSPVKTLQFGENGYWLVVTTNDDSDIFIWDLRKSELVQKIPLQTKVAAVSLDITSQLLVSSDGETLYVHIYVKSSKSWRCMSQTHVSSISNLVWLNELHQLLFSTSNGAILRLG"
3,binds,"Prp24 (protein, UniProt Q9USY2 1-1014) MSQIQDLKDENVEMDIDPQEQNEKKPLLLDELTKFTILHPYNYDSHIKLIEELKRLDKKKELSEARKTFQSIFPLSEDLWVDYLLDECKNCRTLDDYVRIKTLFDLAVQDYLSIKIWCMYLEFTLNLMDTSSFEQEQSELNGVITLTDAHSLFERAYQTCKFHFSKSQCVWTLYLEFLQTFGDALFEGEEEQEIVFKNKIYDFHIDRLKLPHEQIEETFTSLSTFVTNNWSPSEYEDVMVKSNKVYETTLKRNAKIFNKELLLNSANHSLEAYMDLINDESRRSTAELQYITTLYERAIVLYPLIPELWLQYTAWLSKVDFSSSQASSVAERATRNCSWIGRIWSIKLTYMTLSGASTSAVCEEKDRCLNSNLLVNFDEVIDFFSGFLKACLYLSSNEDKPQEFLKHQIHKVEDYLRKNHKGSKDARMRIELSKIYLYSEISDFESVEKCWSDMFHDFQNQALYWISRYISTMKYNPELAAETLKKSLYKNVDQPQLLFQFYQSIMDLNNDCFTNTSHLYDVLNAQRISFKRQLDSFAEETKQTVENTEPLKVPQADDTAALSKKRKPGQEGDVFKKSKPIEQHRNREELTVLVTNLPSDISENELKIFFKDCGNIIRIFILEDNQKDVKVAQIEFSETSEVLAAKTRDLKSIRGHEISVQIHVDTNLYVTNFPPTYDELDITKLFSAYGNVVDVRFPSLRYNTNRRFCYVQMRKPDEAHNALQLHKKLLEEKYPIQVFISDPLRRTPRSGAVYEGRELYVTNIDFKVNEKDVETFFRDYGQVESVRIPKRFNQHKGFGYVVMTTNQDAENALSAAGKQLGNRVLNVVLSKPRESLEKTRVSSNDNRTLAKSFETTESNKMSTPKKSFEQIKSKSLGVTNVDGTVNEARLRSLFESYGKLYRVVLHPEHEGAVVEFLDIHDAGKASLALEGHEIGGRLLHITTVNEMMHNVPSSMNHSDYNTSATRPRRLGSRTFQGFNSNHSNINSKKDDLDDKEMQIDAPKSNDDFRKMFLK"
4,binds,"Prp12 (protein, UniProt Q9UTT2 1-1206) MDTFPSLFLYSLTIQNSNYVQSSCAASLSGKKAQEIVIATESRLLIYKVDATDGRMNCILNQNCFGIIRNVAPLRLTGFKRDYLVVTSDSGRITILEYNVEKNKLVPIYQETFGKSGIRRVVPGEYLAIDAKGRAAMIASVEKNKLVYVLNRDSEANLTISSPLEAHKANNICFHLIGLDTGYANPIFAALEVDYSEIDHDSTREAFTSSEKVLSYYELDLGLNHVVKRWSKVVDRNSYMLIPVPGGNDGPSGTLVISNGWISYRHLQKAFHQIPILRRQAASANAISTPWNQVNSNSANDGPLIVSAVLHKMKGSFFYLLQTGDGDLLKLTIEHDGQGNVVELRLKYFDTVPLAVQLNILKTGFLFVATEFGNHQLYQFENLGIDDDELEITSLDFQAQDNEVGTKNVHFGVRGLQNLSLVEEIPSLYSLTDTLLMKAPSSGEANQLYTVCGRGSNSSLRQLRRGLETTEIVASELPGAPIAIWTLKLNQTDVYDSYIILSFTNGTLVLSIGETVEEISDSGFLSSVSTLNARQMGRDSLVQIHPKGIRYIRANKQTSEWKLPQDVYVVQSAINDMQIVVALSNGELVYFEMSDDVEGGQLNEYQERKTLTANVTSLALGPVQEGSRRSNFMCLACDDATVRVLSLDLYTTLENLSVQALSSPANSLCIIPMNVNGVSTLYLHIGLMNGVYLRTVIDVTSGQLLDTRTRFLGPRAVKIYPITMKNQNTVLAVSSRTFLAYSYQQNLQLSPIAYSAIDHASSFASEQCPEGIVAIQKNTLKIFTVDSLQDDLKSDIYPLICTPRKIVKHPNFPVLYILQSERNFDSFKYAQENGDVGSSYTKEKQNEHTSKSWVSFISVFDMISKKIIHESPLGDNEAAFSMTAAFFKNRDEFFLVAGSATNMDLECRTCSHGNFRVYRFHDEGKKLELISHTEIDGIPMALTPFQGRMLAGVGRFLRIYDLGNKKMLRKGELSAVPLFITHITVQASRIVVADSQYSVRFVVYKPEDNHLLTFADDTIHRWTTTNVLVDYDTLAGGDKFGNIWLLRCPEHVSKLADEENSESKLIHEKPFLNSTPHKLDLMAHFFTNDIPTSLQKVQLVEGAREVLLWTGLLGTVGVFTPFINQEDVRFFQQLEFLLRKECPPLAGRDHLAYRSYYAPVKCVIDGDLCEMYYSLPHPVQEMIANELDRTIAEVSKKIEDFRVRSF"
5,binds,"Prp31 (protein, UniProt O42904 1-518) MSLADELLADLDDIEETTESTITDELGPDAKKRRLELQLEEGNGISAELENDLDITKISDSAQKLPSEVANKFNDNNENIYQLLNSTRLRDIIEGTEKYKGTEKQAITGNIEDDLEYHLIVDSNSIAMEIDDEILRLHRLVKEWYHDRFPELSSLVLNAFDYCKTVSSLLNDLDNSKTKLSFLPSATVMVIATTATTTVGKPLPDEMIKNVKNCCEAIQQLGEEKQKIIEYVQSRISVVAPNLSAVVGSTTAANLIGIAGGLTRLGKFPACNLPALGKRRLTTIGINNPAVSGDYGFLYMSEIVQKTPPDVRKQAIRMTAAKVALAARIDSIHEYPDGSFGISARKEVERKIEKLLEPPSQKPTVALPVPDDRPKRRRGGRRIRKMKEQYAVTELRRLQNRVAFGKEEAEVFNFDETEGLGMLGQEGEGKIRAVSIDSRTKLRLPKARKAQLQSMAQKNPLAASGLQSSLSFTPIQGIELVNPLLQRQQKVEEANKWFRDGVFTQIKKDSNEPKNKFS"

# Results are given in words; binding and its absence hold for the method and conditions named. Binding seen in cells or lysates may run through a third protein. Here binding means that the protein was enriched with, or labelled near, the bait; the list need not be complete. Where a sequence is shown, tags or fusion partners need not be part of it.
